In patent US9725423B2, “Tetrazolinone compound and applications thereof” (SUMITOMO CHEMICAL COMPANY, LIMITED, priority 2012, dated 2017):
Some entries share one result that the patent states for a list of compounds.

Tests used:
Assay type in all cases: in vivo
[1] = test system: cucumber powdery mildew fungus (Sphaerotheca fuliginea); test: Cucumber powdery mildew control test, foliar spray on cucumber (Test Examples 6, 12, Comparative Test Example); settings: cucumber (SAGAMI HANJIRO), 8 days after inoculation
[2] = test system: wheat leaf blotch fungus (Septoria tritici); test: Wheat leaf blotch control test, foliar spray on wheat (Test Examples 5, 11); settings: wheat (APOGEE), inoculated four days after spraying
[3] = test system: barley net blotch fungus (Pyrenophora teres); test: Barley net blotch control test, foliar spray on barley (Test Examples 3, 9); settings: barley (MIKAMO GOLDEN), inoculated two days after spraying
[4] = test system: kidney bean stem rot fungus (Sclerotinia sclerotiorum); test: Kidney bean stem rot control test, foliar spray on kidney bean (Test Examples 4, 10); settings: kidney bean (NAGAUZURA INGEN), four days after inoculation
[5] = test system: barley scald fungus (Rhynchosporium secalis); test: Barley scald control test, foliar spray on barley (Test Example 14); settings: 200 ppm, barley (MIKAMO GOLDEN), inoculated two days after spraying

Measured: area of lesion spots relative to that on an untreated plant

CC(=NOCc1c(Cl)cccc1-n1nnn(C)c1=O)c1ccccc1 [present compound 24, 1-[3-chloro-2-(1-phenylethylideneaminooxymethyl)phenyl]-4-methyl-1,4-dihydrotetrazol-5-one]
≤ 30%: [1]; 500 ppm | [2]; 500 ppm | [3]; 500 ppm | [4]; 500 ppm

Cc1cccc(-n2nnn(C)c2=O)c1CON=Cc1cccc(C(F)(F)F)c1 [present compound 50, 1-methyl-4-{3-methyl-2-[1-(3-trifluoromethylphenyl)methylideneaminooxymethyl]phenyl}-1,4-dihydrotetrazol-5-one]
≤ 30%: [2]; 500 ppm | [3]; 500 ppm | [4]; 500 ppm

Cc1cccc(-n2nnn(C)c2=O)c1CON=C(c1cccc(C(F)(F)F)c1)C(F)(F)F [present compound 63, 1-methyl-4-{3-methyl-2-[2,2,2-trifluoro-1-(3-trifluoromethylphenyl)ethylideneaminooxymethyl]phenyl}-1,4-dihydrotetrazol-5-one]
≤ 30%: [2]; 200 ppm | [4]; 200 ppm

CC(=NOCc1c(C)cccc1-n1nnn(C)c1=O)c1ccc(F)c(F)c1 [present compound 67, 1-{3-methyl-2-[1-(3,4-difluorophenyl)ethylideneaminooxymethyl]phenyl}-4-methyl-1,4-dihydrotetrazol-5-one]
≤ 30%: [1]; 500 ppm | [2]; 500 ppm | [3]; 500 ppm | [4]; 500 ppm

CC(=NOCc1c(C2CC2)cccc1-n1nnn(C)c1=O)c1cccc(OC(F)F)c1 [present compound 86, 1-{3-cyclopropy-2-[1-(3-difluoromethoxyphenyl)ethylideneaminooxymethyl]phenyl}-4-methyl-1,4-dihydrotetrazol-5-one]
≤ 30%: [1]; 500 ppm | [2]; 500 ppm | [3]; 500 ppm | [4]; 500 ppm

CC#CCOc1cccc(C(C)=NOCc2c(C)cccc2-n2nnn(C)c2=O)c1 [present compound 87]
≤ 30%: [3]; 500 ppm | [4]; 200 ppm

CC(=NOCc1c(C2CC2)cccc1-n1nnn(C)c1=O)c1cccc(C(F)F)c1 [present compound 89, 1-{3-cyclopropyl-2-[1-(3-difluoromethylphenyl)ethylideneaminooxymethyl]phenyl}-4-methyl-1,4-dihydrotetrazol-5-one]
≤ 30%: [1]; 500 ppm | [2]; 500 ppm | [3]; 500 ppm | [4]; 500 ppm

CC(=NOCc1c(C2CC2)cccc1-n1nnn(C)c1=O)c1ccc2c(c1)OCO2 [present compound 90, 1-[2-(1-benzo[1,3]dioxan-5-yl-ethylideneaminooxymethyl)-3-cyclopropylphenyl]-4-methyl-1,4-dihydrotetrazol-5-one]
≤ 30%: [1]; 500 ppm | [2]; 500 ppm | [3]; 200 ppm | [4]; 500 ppm

CC(=NOCc1c(C2CC2)cccc1-n1nnn(C)c1=O)c1ccc2c(c1)OC(F)(F)O2 [present compound 91, 1-{3-cyclopropyl-2-[1-(2,2-difluorobenzo[1,3]dioxol-5-yl)ethylideneaminooxymethyl]phenyl}-4-methyl-1,4-dihydrotetrazol-5-one]
≤ 30%: [1]; 500 ppm | [2]; 500 ppm | [4]; 200 ppm

COc1cccc(C(C)=NOCc2c(-n3nnn(C)c3=O)cccc2C(F)(F)F)c1 [present compound 113, 1-{2-[1-(3-methoxyphenyl)ethylideneaminooxymethyl]-3-trifluoromethylphenyl}-4-methyl-1,4-dihydrotetrazol-5-one]
≤ 30%: [5] | [1]; 500 ppm | [2]; 500 ppm | [3]; 500 ppm

CC(=NOCc1c(-n2nnn(C)c2=O)cccc1C(F)(F)F)c1cccc(OC(F)(F)F)c1 [present compound 114, 1-{2-[1-(3-trifluoromethoxyphenyl)ethylideneaminooxymethyl]-3-trifluoromethylphenyl}-4-methyl-1,4-dihydrotetrazol-5-one]
≤ 30%: [5] | [1]; 500 ppm | [2]; 500 ppm | [3]; 500 ppm

CC(=NOCc1c(-n2nnn(C)c2=O)cccc1C(F)(F)F)c1ccc2c(c1)CCC2 [present compound 115, 1-[2-(1-indan-5-ylethylideneaminooxymethyl)-3-trifluoromethylphenyl]-4-methyl-1,4-dihydrotetrazol-5-one]
≤ 30%: [5] | [1]; 500 ppm | [2]; 500 ppm | [3]; 500 ppm

CCC(=NOCc1c(C2CC2)cccc1-n1nnn(C)c1=O)c1cccc(OC(F)(F)F)c1 [present compound 120, 1-{3-cyclopropyl-2-[1-(3-trifluoromethoxyphenyl)propylideneaminooxymethyl]phenyl}-4-methyl-1,4-dihydrotetrazol-5-one]
≤ 30%: [5] | [1]; 500 ppm | [2]; 500 ppm | [3]; 500 ppm

CCC(=NOCc1c(Br)cccc1-n1nnn(C)c1=O)c1cccc(OC(F)(F)F)c1 [present compound 121, 1-{3-bromo-2-[1-(3-trifluoromethoxyphenyl)propylideneaminooxymethyl]phenyl}-4-methyl-1,4-dihydrotetrazol-5-one]
≤ 30%: [5] | [1]; 200 ppm | [2]; 200 ppm | [3]; 200 ppm

CCC(=NOCc1c(C)cccc1-n1nnn(C)c1=O)c1cccc2c1CCCC2 [present compound 126, 1-{3-methyl-2-[1-(5,6,7,8-tetrahydronaphthalen-1-yl)propylideneaminooxymethyl]phenyl}-4-methyl-1,4-dihydrotetrazol-5-one]
≤ 30%: [5] | [1]; 500 ppm | [2]; 500 ppm | [3]; 200 ppm

CC(=NOCc1c(C)cccc1-n1nnn(C)c1=O)c1cccc2c1OC(F)(F)O2 [present compound 134, 1-{2-[1-(2,2-difluorobenzo[1,3]dioxan-4-yl)ethylideneaminooxymethyl]-3-methylphenyl}-4-methyl-1,4-dihydrotetrazol-5-one]
≤ 30%: [5] | [1]; 500 ppm | [2]; 500 ppm | [3]; 500 ppm

CC(=NOCc1c(C)cccc1-n1nnn(C)c1=O)c1cccc(C(F)(F)F)c1F [present compound 148, 1-{2-[1-(2-fluoro-3-trifluoromethylphenyl)ethylideneaminooxymethyl]-3-methylphenyl}-4-methyl-1,4-dihydrotetrazol-5-one]
≤ 30%: [5] | [1]; 500 ppm | [2]; 500 ppm | [3]; 500 ppm

CC(C=Cc1c(Cl)cccc1Cl)=NOCc1c(C)cccc1-n1nnn(C)c1=O [present compound 208, 1-{2-[3-(2,6-dichlorophenyl)-1-methylallylideneaminooxymethyl)-3-methylphenyl]-4-methyl-1,4-dihydrotetrazol-5-one]
≤ 30%: [1]; 500 ppm | [4]; 500 ppm

CC(=NOCc1c(C)cccc1-n1nnn(C)c1=O)c1noc2cc(F)ccc12 [present compound 260, 1-{2-[1-(6-fluorobenzo[d]isoxazol-3-yl)ethylideneaminooxymethyl]-3-methylphenyl}-4-methyl-1,4-dihydrotetrazol-5-one]
≤ 30%: [5] | [1]; 500 ppm | [2]; 200 ppm | [3]; 500 ppm

CC(=NOCc1c(C2CC2)cccc1-n1nnn(C)c1=O)c1noc2cc(F)ccc12 [present compound 262, 1-{3-cyclopropyl-2-[1-(6-fluorobenzo[d]isoxazol-3-yl)ethylideneaminooxymethyl]phenyl}-4-methyl-1,4-dihydrotetrazol-5-one]
≤ 30%: [5] | [1]; 500 ppm | [2]; 500 ppm | [3]; 500 ppm
